Results deposited as PubChem BioAssay AID652272 (Drosophila RNAi Screening Center, 2013).

Test: 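Genome-wide knock-down search for components of Hedgehog signalling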 (primary screen)
Cells: Drosophila clone 8 (Cl8) cells
Knock-down reagent: long dsRNA against Drosophila genes
Measurement: 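Firefly light from a Hedgehog-responsive ptc promoter reporter and Renilla reference light, both read on a plate reader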
Scale: firefly Hh reporter signal: higher = more ptc reporter light; Renilla reference signal: higher = more Renilla control light
Hit rule: 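Hit when the z-score averaged over two replicates is under -2 or over +3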
Meaning of the calls: active = hit: reporter lowered or raised; inactive = not a hit
The deposit covers about 21,000 reagents; this is a random part of those that have a named target and a result. Over the whole deposit, 503 (2.4%) got an active call. 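Raw plate light values, not normalised; calls rest on replicate z-scores that were not deposited; hits include reporter decreases as well as increases.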 A plus sign joins genes that one reagent is predicted to hit. The record does not give: the amount of reagent, the time to read-out.

gene	dsRNA	firefly Hh reporter signal, replicate 1	firefly Hh reporter signal, replicate 2	firefly Hh reporter signal, replicate 3	Renilla reference signal, replicate 1	Renilla reference signal, replicate 2	Call
Spn28Dc (GeneID 34091)	DRSC03029	49617	24688		1956	3931	active
CG10737 (GeneID 37202)	DRSC05999	1.01e5	75738		5272	3379	inactive
Cht9 (GeneID 37392)	DRSC04079	95101	44704		3664	1916	inactive
CG9518 (GeneID 32416)	DRSC20194	72340	1.61e5		1856	6544	inactive
CG14174 (GeneID 39139)	DRSC10175	32070	30614	59669	4197	4141	inactive
grim (GeneID 40014)	DRSC11352	53440			2507	1914	inactive
Gnpat (GeneID 53586)	DRSC16960	4.97e5	1.28e5		26661	3501	inactive
yem (GeneID 43439)	DRSC14865	1.22e5	1.12e5		4272	2205	inactive
yem (GeneID 43439)	DRSC17097	70293	87275		2848	1987	inactive
eRF3 (GeneID 34658)	DRSC03322	90233	45392		2989	5114	inactive
mirr (GeneID 39441)	DRSC11369	64935	34173	65269	3226	4786	inactive
CG32706 + CG6999	DRSC18412	92086	4.73e5		3216	16166	inactive
CG15919 (GeneID 50216)	DRSC06594	6.30e5	1.13e5		4968	4968	inactive
sni (GeneID 31761)	DRSC17770	92763	77748		2242	1944	inactive
CG5681 (GeneID 35074)	DRSC02876	1.44e5	68020		3286	7690	inactive
Nepl5 (GeneID 33892)	DRSC03241	56492	79216		2499	3002	inactive
Es2 (GeneID 31780)	DRSC18663	89190	72106		2312	2168	inactive
Mf (GeneID 41824)	DRSC16120	1.34e5	1.18e5		5056	3506	inactive
CG9040 (GeneID 39546)	DRSC11053	92269			2605	2838	inactive
CG13643 (GeneID 50074)	DRSC14641	5.50e5	1.18e5		26008	3206	inactive
CG13643 (GeneID 50074)	DRSC14642	5.56e5	1.51e5		28039	4661	inactive
rnh1 (GeneID 35746)	DRSC07673	73813	33552		2184	3362	inactive
CG4210 (GeneID 41832)	DRSC15551	82417	83306		3058	2674	inactive
Or85e (GeneID 41018)	DRSC16768	68453	1.22e5		1701	3511	inactive
Ctl2 (GeneID 43440)	DRSC14423	87957	81301		2201	2204	inactive
Ent3 (GeneID 39461)	DRSC09822	1.01e5	46162		4082	1408	inactive
HP5 (GeneID 32090)	DRSC19773	1.30e5	64912		3216	1851	inactive
CG13197 (GeneID 36253)	DRSC06322	1.00e5	57395		2661	3853	inactive
CG33937 (retired record) (GeneID 50008)	DRSC15148	1.24e5	1.21e5		3993	3165	inactive
CG10970 (GeneID 31830)	DRSC17772	98022	86778		2464	2048	inactive
CG31523 (GeneID 326148)	DRSC12009	2.81e5			6533		inactive
CG31523 (GeneID 326148)	DRSC12337	1.59e5	1.46e5		6995	5725	inactive
Or45a (GeneID 35958)	DRSC07487	1.13e5	38858		2960	4292	inactive
DNAlig3 (GeneID 41518)	DRSC15201	96352	1.60e5		3168	3872	inactive
rpk (GeneID 40580)	DRSC12386	1.57e5	1.31e5		5431	3612	inactive
CG6059 (GeneID 43270)	DRSC15958	1.33e5	58688		2854	1702	inactive
Atg101 (GeneID 32871)	DRSC20020	44112	2.34e5		1208	9616	inactive
COX7AL (GeneID 40995)	DRSC15313	48180	1.37e5		1770	3616	inactive
CG10950 (GeneID 36942)	DRSC06020	69216	50982		1824	4162	inactive
CR15280 (GeneID 3885605)	DRSC01953	1.01e5	68633		2324	5618	inactive
TpnC4 (GeneID 35498)	DRSC04856	67749	33341		1559	3418	inactive
sno (GeneID 32273)	DRSC20378	1.09e5	96532		2023	2231	inactive
ort (GeneID 45910)	DRSC16240	5.68e5	88288		29124	2711	inactive
ppk11 (GeneID 34299)	DRSC02737	77543	35392		1744	2884	inactive
Uch (GeneID 33397)	DRSC00797	1.58e5	93175		5722	3626	inactive
Cyp6u1 (GeneID 35608)	DRSC05015	99508	73357		3864	3138	inactive
CG17752 (GeneID 42337)	DRSC15262	7.49e5	1.74e5		38042	5015	inactive
CG16824 (GeneID 5740834)	DRSC02525	1.18e5	46098		2198	3973	inactive
CG11663 (GeneID 31036)	DRSC17793	48119	92536		1356	4027	inactive
DIP-epsilon (GeneID 7354433)	DRSC00932	8.48e5	4.28e5		44837	15851	inactive
DIP-epsilon (GeneID 7354433)	DRSC02313	1.73e5	65944		3988	6009	inactive
Nup153 (GeneID 32630)	DRSC19904	2.87e5	48576	34738	4234	1282	active
CG15547 (GeneID 43661)	DRSC15085	1.21e5	1.34e5		4272	3658	inactive
mRpS6 (GeneID 38535)	DRSC08470	65120	45228		6199	2869	inactive
isoQC (GeneID 40270)	DRSC11790	79090	83617		2723	2304	inactive
S-Lap2 (GeneID 326209)	DRSC10628	71163	60093		5648	4369	inactive
CG16782 (GeneID 31313)	DRSC18118	93478	2.53e5		2628	8593	inactive
CG34444 (GeneID 5740745)	DRSC06435	92362	53172		1905	3264	inactive
CG15550 (GeneID 43666)	DRSC15088	76262	1.17e5		2620	3313	inactive
btl (GeneID 39564)	DRSC11331	78051			5728	2272	inactive
Hmgcr (GeneID 42803)	DRSC16704	4.60e5	1.23e5		21608	3179	inactive
Spn88Ea (GeneID 49804)	DRSC17061	99947	70841		3584	2304	inactive
Lac (GeneID 36363)	DRSC07452	96459	43965		3782	1978	inactive
CG32719 (GeneID 318169)	DRSC17525	6.00e5	2.11e5		28320	5223	inactive
trc (GeneID 40165)	DRSC11406	1.45e5	1.62e5		4853	4198	inactive
CtsF (GeneID 40628)	DRSC12056	1.60e5			3841		inactive
CtsF (GeneID 40628)	DRSC12195	1.19e5	1.11e5		5053	4315	inactive
CtsF (GeneID 40628)	DRSC12196	71979	1.10e5		3077	3157	inactive
CG12994 (GeneID 50350)	DRSC19192	5.33e5	1.49e5		32625	3568	inactive
CG12994 (GeneID 50350)	DRSC19514	71584	1.76e5		2443	8440	inactive
Scsalpha1 (GeneID 38447)	DRSC08698	1.16e5	1.04e5		4811	3979	inactive
Fit2 (GeneID 39907)	DRSC10908	78841	76404		3621	3043	inactive
CG5056 (GeneID 34406)	DRSC02808	1.10e5	65351		3626	5974	inactive

10 entries already listed, sorted by “firefly Hh reporter signal, replicate 1”, high to low.
gene	dsRNA	firefly Hh reporter signal, replicate 1	firefly Hh reporter signal, replicate 2	firefly Hh reporter signal, replicate 3	Renilla reference signal, replicate 1	Renilla reference signal, replicate 2	Call
CG17752 (GeneID 42337)	DRSC15262	7.49e5	1.74e5		38042	5015	inactive
ort (GeneID 45910)	DRSC16240	5.68e5	88288		29124	2711	inactive
Uch (GeneID 33397)	DRSC00797	1.58e5	93175		5722	3626	inactive
CG16824 (GeneID 5740834)	DRSC02525	1.18e5	46098		2198	3973	inactive
sno (GeneID 32273)	DRSC20378	1.09e5	96532		2023	2231	inactive
CR15280 (GeneID 3885605)	DRSC01953	1.01e5	68633		2324	5618	inactive
Cyp6u1 (GeneID 35608)	DRSC05015	99508	73357		3864	3138	inactive
ppk11 (GeneID 34299)	DRSC02737	77543	35392		1744	2884	inactive
TpnC4 (GeneID 35498)	DRSC04856	67749	33341		1559	3418	inactive
CG11663 (GeneID 31036)	DRSC17793	48119	92536		1356	4027	inactive
